Results deposited as PubChem BioAssay AID686938 (Drosophila RNAi Screening Center, 2013).

- Aim: 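Knock-downs reducing store-operated calcium influx in Drosophila cells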 (primary screen)
- Cells: Drosophila S2R+ cells
- Reagents: long dsRNA against Drosophila genes, about 0.25 µg dsRNA per well, roughly 10,000 cells
- Time to read-out: 5 days of knock-down before the calcium assay
- Conditions: thapsigargin (SERCA pump blocker) to empty calcium stores; entry signal taken 4 min after adding it
- Measured: 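Per-well fluo-4 fluorescence in two replicates, unnormalised, measured in resting cells and 4 min after store depletion by the SERCA blocker thapsigargin; ratio of the two present in few wells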
- Reading the numbers: calcium entry signal: higher = stronger calcium signal after store depletion; resting calcium signal: higher = higher resting calcium signal
- Active means: 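Called when the plate z-score of the entry-to-rest ratio, mean of duplicates, falls below −3; wells with low overall dye signal (Fmax z below −2) or more than five off-targets excluded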
- Meaning of the calls: active = strongly reduced calcium entry; inactive = no strong reduction
In all, the deposit lists about 23,000 reagents; this is a random part of those that have a named target and a result. In the full data, 75 (0.33%) are marked active. 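Raw plate signals without normalisation; calls rest on plate z-scores that were not deposited; ratio present for only 364 wells.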 Entries without a mark were called inactive. Not stated in the record: the dose of the treatment.

predicted target	DRSC id	calcium entry signal, replicate 1 (fluorescence units)	calcium entry signal, replicate 2 (fluorescence units)	resting calcium signal, replicate 1 (fluorescence units)	resting calcium signal, replicate 2 (fluorescence units)
CG2121	DRSC06819	3.94e7	3.86e7	1.69e7	1.78e7
CG2121	DRSC06820	3.67e7	3.04e7	1.63e7	1.41e7
sxe2	DRSC15692	2.82e7	2.45e7	1.37e7	1.20e7
CG12811	DRSC14549	2.36e7	1.84e7	1.14e7	1.01e7
drm	DRSC00277	2.98e7	3.55e7	1.50e7	1.72e7
CG14005	DRSC02337	4.58e7		2.01e7	
CG10514	DRSC14249	3.53e7	5.24e7	1.95e7	2.14e7
CG10553	DRSC14254	2.97e7	8.32e7	1.76e7	3.43e7
CG11162	DRSC19391	3.80e7	3.50e7	1.89e7	1.58e7
CG11162	DRSC22538	1.97e7	2.90e7	1.15e7	1.23e7
CG9915	DRSC20217	3.65e7	2.15e7	1.85e7	1.09e7
CG9915	DRSC21565	3.62e7	4.10e7	2.02e7	1.89e7
TSG101	DRSC11098	3.25e7	4.79e7	2.12e7	2.32e7
Ogdh	DRSC09854	1.95e7	3.07e7	9.32e6	1.90e7
Ogdh	DRSC09855	3.55e7	4.53e7	1.80e7	1.67e7
Atg12	DRSC09803	3.07e7	3.79e7	1.57e7	1.66e7
CG9737	DRSC16550	3.16e7	4.98e7	1.71e7	2.04e7
Mst57Da	DRSC16744	6.00e7	3.13e7	2.48e7	1.31e7
rump	DRSC16480	3.67e7	3.95e7	1.64e7	1.95e7
CG31267	DRSC15748	3.20e7	6.98e7	1.70e7	7.59e7
Qsox3	DRSC16096	4.52e7	4.63e7	6.23e7	2.26e7
Gem2	DRSC09721	4.11e7	5.04e7	1.83e7	3.28e7
CG11839	DRSC14398	4.35e7	7.17e7	2.07e7	3.14e7
fkh	DRSC16949	3.93e7	5.72e7	1.96e7	2.48e7
CG13983	DRSC02315	3.83e7	4.18e7	1.91e7	1.94e7
Cyp18a1	DRSC20235	3.43e7	3.96e7	1.56e7	1.66e7
CG3014	DRSC15458	4.10e7	3.33e7	1.97e7	1.63e7
nAChRalpha6	DRSC01096	3.60e7	3.79e7	1.76e7	1.67e7
nAChRalpha6	DRSC01098	3.33e7	4.53e7	1.56e7	1.76e7
nAChRalpha6	DRSC02738	5.70e7		2.63e7	
Alp1	DRSC11781	3.10e7	3.48e7	1.48e7	2.40e7
Glg1	DRSC11815	2.95e7	3.96e7	1.31e7	2.57e7
Glg1	DRSC11816	2.69e7	5.36e7	1.36e7	2.04e7
Glg1	DRSC11817	2.56e7	3.41e7	1.26e7	1.48e7
Nca	DRSC11233	3.65e7	5.32e7	1.77e7	2.32e7
Cdc16	DRSC16920	3.56e7 (active)	3.24e7	2.62e7	2.06e7
raw	DRSC03599	3.57e7	3.98e7	1.57e7	1.92e7
raw	DRSC03600	3.21e7	4.55e7	1.44e7	2.17e7
Prx1	DRSC10741	3.32e7	5.02e7	1.82e7	1.91e7
CG15233	DRSC04967	3.84e7		1.85e7	
CG34188	DRSC05549	4.34e7	4.71e7	2.05e7	2.13e7
Apt1	DRSC10348	2.21e7	2.45e7	1.26e7	1.25e7
Acp76A	DRSC09665	2.66e7	4.64e7	1.29e7	1.87e7
CG15142	DRSC02443	5.15e7	3.27e7	2.19e7	1.74e7
CG5550	DRSC06943	3.21e7	4.03e7	1.41e7	1.98e7
f-cup	DRSC14139	2.28e7	2.40e7	1.12e7	1.18e7
CG13065	DRSC09948	3.24e7	5.57e7	1.75e7	2.25e7
CG14207	DRSC19562	2.78e7	3.18e7	1.41e7	1.37e7
CG14207	DRSC19563	3.96e7	4.03e7	2.09e7	1.82e7
Acox57D-p	DRSC04560	4.08e7		2.03e7	
Adgf-A	DRSC10566	4.19e7	4.53e7	1.96e7	3.12e7
CG10395	DRSC04840	3.58e7		1.80e7	
Grip71	DRSC02042	1.91e7	3.64e7	1.03e7	1.63e7
CG3339	DRSC13821	3.57e7	5.27e7	1.76e7	2.38e7
CG3339	DRSC15479	3.61e7	5.43e7	1.77e7	2.20e7
Hmgcl	DRSC02051	3.68e7	4.24e7	1.85e7	1.83e7
CG17327	DRSC15225	1.99e7	2.72e7	1.01e7	4.68e7
Spt3	DRSC15465	2.64e7	3.20e7	1.40e7	1.61e7

Reprinted from the entries so far, 4 entries:
predicted target	DRSC id	calcium entry signal, replicate 1 (fluorescence units)	calcium entry signal, replicate 2 (fluorescence units)	resting calcium signal, replicate 1 (fluorescence units)	resting calcium signal, replicate 2 (fluorescence units)
Cyp18a1	DRSC20235	3.43e7	3.96e7	1.56e7	1.66e7
CG3014	DRSC15458	4.10e7	3.33e7	1.97e7	1.63e7
nAChRalpha6	DRSC01096	3.60e7	3.79e7	1.76e7	1.67e7
nAChRalpha6	DRSC01098	3.33e7	4.53e7	1.56e7	1.76e7
